Consider one molecule from publication PMC8727739.

Holding throughout (test): co-IP; FLAG-STK11 (wild type or variant) co-transfected with STRADα in HEK293; precipitated with anti-Flag beads, washed three times with NP40; blots with anti-STK11, then anti-STRADα and anti-MO25
Assay [1] concerns the target T1, Serine/Threonine Kinase 11 (STK11), wild type, FLAG-tagged (human) (UniProt Q15831).
T1 sequence: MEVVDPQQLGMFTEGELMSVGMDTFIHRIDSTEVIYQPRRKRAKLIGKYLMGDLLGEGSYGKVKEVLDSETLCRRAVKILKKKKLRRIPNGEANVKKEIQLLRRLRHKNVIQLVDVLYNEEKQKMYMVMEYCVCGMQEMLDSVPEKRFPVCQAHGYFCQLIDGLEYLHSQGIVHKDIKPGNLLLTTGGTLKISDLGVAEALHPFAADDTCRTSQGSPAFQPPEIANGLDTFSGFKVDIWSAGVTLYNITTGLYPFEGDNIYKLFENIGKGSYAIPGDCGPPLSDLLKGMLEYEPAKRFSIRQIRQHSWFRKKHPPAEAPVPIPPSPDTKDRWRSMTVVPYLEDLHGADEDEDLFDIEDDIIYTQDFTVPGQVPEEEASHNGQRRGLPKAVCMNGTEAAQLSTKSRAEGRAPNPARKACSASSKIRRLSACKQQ

Assay [2] concerns the target T2, STK11 R297M, FLAG-tagged (human) (UniProt Q15831).
T2 sequence: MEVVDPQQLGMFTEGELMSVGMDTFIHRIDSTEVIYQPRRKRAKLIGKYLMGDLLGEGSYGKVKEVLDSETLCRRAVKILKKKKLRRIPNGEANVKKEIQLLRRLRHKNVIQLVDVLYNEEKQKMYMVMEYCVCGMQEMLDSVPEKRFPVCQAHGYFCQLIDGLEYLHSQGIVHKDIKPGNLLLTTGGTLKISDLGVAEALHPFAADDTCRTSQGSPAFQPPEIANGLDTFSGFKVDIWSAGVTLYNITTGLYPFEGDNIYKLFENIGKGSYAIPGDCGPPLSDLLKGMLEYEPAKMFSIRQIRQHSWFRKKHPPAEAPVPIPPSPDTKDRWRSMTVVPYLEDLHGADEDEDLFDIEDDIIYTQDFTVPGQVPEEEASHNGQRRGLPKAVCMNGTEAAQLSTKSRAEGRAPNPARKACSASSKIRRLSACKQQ

Assay [3] addresses T3, STK11 R297S, FLAG-tagged (human) (UniProt Q15831).
T3 sequence: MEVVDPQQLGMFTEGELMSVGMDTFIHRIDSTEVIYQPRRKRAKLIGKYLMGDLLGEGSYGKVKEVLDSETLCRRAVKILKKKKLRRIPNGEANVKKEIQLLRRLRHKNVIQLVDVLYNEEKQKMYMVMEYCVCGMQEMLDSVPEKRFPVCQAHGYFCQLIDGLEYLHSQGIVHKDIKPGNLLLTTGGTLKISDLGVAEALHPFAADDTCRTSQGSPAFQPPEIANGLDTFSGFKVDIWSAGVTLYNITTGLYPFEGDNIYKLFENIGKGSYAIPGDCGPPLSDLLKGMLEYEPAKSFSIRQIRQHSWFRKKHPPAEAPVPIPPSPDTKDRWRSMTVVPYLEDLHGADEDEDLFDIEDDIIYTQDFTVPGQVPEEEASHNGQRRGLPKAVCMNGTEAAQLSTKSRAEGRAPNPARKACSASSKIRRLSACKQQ

No constants are given. Whether binding was seen depends on the method and setting. Binding seen in cells or lysates may run through a third protein. Some results given as binding are weak or reduced against the parent protein; the word gives no strength. Tags and fused reporters may be left off the sequences shown.

B1: STRADα (protein, UniProt Q7RTN6 1-431)
chain: MSFLVSKPERIRRWVSEKFIVEGLRDLELFGEQPPGDTRRKTNDASSESIASFSKQEVMSSFLPEGGCYELLTVIGKGFEDLMTVNLARYKPTGEYVTVRRINLEACSNEMVTFLQGELHVSKLFNHPNIVPYRATFIADNELWVVTSFMAYGSAKDLICTHFMDGMNELAIAYILQGVLKALDYIHHMGYVHRSVKASHILISVDGKVYLSGLRSNLSMISHGQRQRVVHDFPKYSVKVLPWLSPEVLQQNLQGYDAKSDIYSVGITACELANGHVPFKDMPATQMLLEKLNGTVPCLLDTSTIPAEELTMSPSRSVANSGLSDSLTTSTPRPSNGDSPSHPYHRTFSPHFHHFVEQCLQRNPDARPSASTLLNHSFFKQIKRRASEALPELLRPVTPITNFEGSQSQDHSGIFGLVTNLEELEVDDWEF
With B1, the binding entry in assay [1] is “binds”; in assay [2], “no binding”; in assay [3] it was “no binding”.
